Data on 1 molecule can be found in article PMC11176650.

Amino acid sequences for entries named in this document (tags omitted). Residues count along the entry.
UniProt P08581, residues 25-1390: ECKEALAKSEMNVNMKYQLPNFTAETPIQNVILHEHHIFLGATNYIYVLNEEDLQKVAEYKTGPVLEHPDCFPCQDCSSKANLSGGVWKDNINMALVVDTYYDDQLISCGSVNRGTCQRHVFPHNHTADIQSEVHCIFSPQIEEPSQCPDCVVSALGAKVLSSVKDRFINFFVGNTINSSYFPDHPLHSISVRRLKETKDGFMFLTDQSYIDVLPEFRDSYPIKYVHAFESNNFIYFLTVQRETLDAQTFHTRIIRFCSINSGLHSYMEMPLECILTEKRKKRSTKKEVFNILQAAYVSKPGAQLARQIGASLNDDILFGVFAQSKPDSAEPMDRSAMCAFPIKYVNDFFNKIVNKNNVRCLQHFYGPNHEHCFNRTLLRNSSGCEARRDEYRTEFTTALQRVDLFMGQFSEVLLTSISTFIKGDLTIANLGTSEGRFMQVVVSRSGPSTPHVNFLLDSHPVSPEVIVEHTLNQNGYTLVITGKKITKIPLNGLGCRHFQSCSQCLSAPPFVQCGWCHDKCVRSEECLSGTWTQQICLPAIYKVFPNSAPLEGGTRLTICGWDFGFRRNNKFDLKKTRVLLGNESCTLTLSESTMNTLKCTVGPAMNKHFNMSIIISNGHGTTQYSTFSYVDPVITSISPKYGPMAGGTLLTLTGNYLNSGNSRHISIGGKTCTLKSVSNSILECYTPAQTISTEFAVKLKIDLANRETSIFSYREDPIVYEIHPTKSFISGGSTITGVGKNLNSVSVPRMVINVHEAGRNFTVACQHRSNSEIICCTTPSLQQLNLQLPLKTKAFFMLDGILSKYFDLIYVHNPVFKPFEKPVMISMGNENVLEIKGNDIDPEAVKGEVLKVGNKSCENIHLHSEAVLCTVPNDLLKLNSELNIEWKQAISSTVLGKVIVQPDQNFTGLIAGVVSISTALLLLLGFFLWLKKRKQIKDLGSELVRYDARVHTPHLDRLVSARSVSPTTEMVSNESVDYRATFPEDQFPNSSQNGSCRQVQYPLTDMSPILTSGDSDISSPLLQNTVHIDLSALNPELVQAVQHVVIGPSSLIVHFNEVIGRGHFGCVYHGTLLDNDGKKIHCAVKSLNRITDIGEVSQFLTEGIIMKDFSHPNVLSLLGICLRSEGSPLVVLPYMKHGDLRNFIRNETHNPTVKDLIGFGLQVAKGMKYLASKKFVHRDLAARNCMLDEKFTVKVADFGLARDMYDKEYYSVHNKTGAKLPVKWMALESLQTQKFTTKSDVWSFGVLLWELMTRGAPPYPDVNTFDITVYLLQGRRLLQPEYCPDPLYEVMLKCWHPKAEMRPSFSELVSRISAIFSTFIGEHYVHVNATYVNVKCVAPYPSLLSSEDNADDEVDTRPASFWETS

The target in this assay is MET (UniProt P08581). Put plainly: co-IP; cells, precipitated protein and conditions not stated in the text shown.

No constants are given. Whether binding was seen depends on the method and setting. Binding seen in cells or lysates may run through a third protein. Some entries that bind do so weakly or less than the wild type.

B1: myelin protein zero-like protein 1 (MPZL1) (protein, UniProt O95297 36-269)
chain: SALEVYTPKEIFVANGTQGKLTCKFKSTSTTGGLTSVSWSFQPEGADTTVSFFHYSQGQVYLGNYPPFKDRISWAGDLDKKDASINIENMQFIHNGTYICDVKNPPDIVVQPGHIRLYVVEKENLPVFPVWVVVGIVTAVVLGLTLLISMILAVLYRRKNSKRDYTGCSTSESLSPVKQAPRKSPSDTEGLVKSLPSGSHQGPVIYAQLDHSGGHHSDKINKSESVVYADIRKN
On to B1, for which the binding entry was “binds”.
